From PubChem BioAssay AID1439 (NMMLSC, 2008)
The whole screen tested about 220,000 compounds, of which about 770 (0.35%) were called active. This list was built around the results that the source calls inconclusive (neither active nor inactive); the mix of calls is not that of the screen. Rule as the data show it: active = binding response below about 49% or above about 150%; inconclusive = no clear call, values can overlap the other calls; inactive = in between.

Protein sequences, listed by entry. Tags and fused reporters are not part of them.
UniProt P09471, whole entry, looked up: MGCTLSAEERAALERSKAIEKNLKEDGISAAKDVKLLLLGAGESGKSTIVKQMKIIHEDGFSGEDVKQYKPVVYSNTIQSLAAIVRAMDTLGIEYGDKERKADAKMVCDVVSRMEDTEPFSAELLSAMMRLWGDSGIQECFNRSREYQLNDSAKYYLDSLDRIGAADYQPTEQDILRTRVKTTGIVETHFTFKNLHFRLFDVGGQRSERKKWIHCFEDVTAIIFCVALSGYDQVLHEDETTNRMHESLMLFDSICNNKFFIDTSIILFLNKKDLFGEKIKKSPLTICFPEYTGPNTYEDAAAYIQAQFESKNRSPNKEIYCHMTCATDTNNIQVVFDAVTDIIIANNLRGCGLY

The molecules below were run against Guanine nucleotide-binding protein G(o) subunit alpha (Homo sapiens) (UniProt P09471) (assay: RGS7-Galphao binding modulators, primary screen, biochemical, multiplexed bead flow cytometry (AID 1439;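 also: fluorescent Galphao held in activated GDP-AlF4 state binding bead-coupled RGS7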)). Details: at 10 µM, actives lie on both sides.
`O=C(N/N=C/c1c[nH]c2ccccc12)c1cccs1` was tested, and the binding response (% of control) was inconclusive: 177%.
For `COc1ccc(C(=O)N2CCCC(C(=O)N3CCN(c4ccccc4)CC3)C2)cc1` (stereo not drawn), the binding response (% of control) was inconclusive: 78.7%.
`CC(C)(C)c1nnc2sc(SCC(=O)c3ccccc3)nn2c1=O` was tested, and the binding response (% of control) was inactive: 106%.
In the case of `CNS(=O)(=O)c1ccc2ccccc2c1`, the binding response (% of control) is reported as inconclusive: 107%.
With `Oc1ccc(/C=N/N2CCN(C3c4ccccc4-c4ccccc43)CC2)cc1` the binding response (% of control) was inconclusive: 15.8%.
`CC(=O)Nc1ccc(S(=O)(=O)N(C)c2ccc(OCC(=O)OCC(=O)Nc3ccc(OC(F)F)cc3)cc2)cc1` was tested, and the binding response (% of control) was inconclusive: 111%.
`CC(C)(CO)Nc1nc(Cl)nc(NC2CCCCC2)n1` was tested, and the binding response (% of control) was inconclusive: 91.7%.
With `CC(C)C1Nc2c(C(=O)O)cccc2C(Nc2ccccc2C(=O)O)C1(C)C` (stereo not drawn) the binding response (% of control) was inconclusive: 105%.
For `COC(=O)C1=C(C)NC(C)=C(C(=O)OC)C1C(=O)OCC(=O)c1ccc(F)cc1`, the binding response (% of control) was inconclusive: 102%.
`Cn1c(NC(=O)/C=C\c2ccccc2)cc(=O)n(C)c1=O` was tested, and the binding response (% of control) was inactive: 103%.
In the case of `O=[N+]([O-])c1ccc(N2CCCC2)nc1`, the binding response (% of control) is reported as inconclusive: 25.6%.
For `Cn1c(SCC(=O)Nc2cccc(F)c2)nc2c([nH]c3ccccc32)c1=O`, the binding response (% of control) was inactive: 99.9%.
For `Nn1c(SCC(=O)NC2CCCc3ccccc32)nnc1-c1ccc(Cl)cc1Cl` (stereo not drawn), the binding response (% of control) was inactive: 96.8%.
`CCN(CC)C(=O)Nc1ccc(Br)cc1` was tested, and the binding response (% of control) was inconclusive: 102%.
For `COc1ccc(-n2ccnc2SCC(=O)NCc2ccc(F)cc2)c(OC)c1`, the binding response (% of control) was inactive: 98.6%.
With `CC(C(=O)Nc1cccc(S(=O)(=O)N2CCOCC2)c1)N1CCN(C/C=C/c2ccccc2)CC1` (stereo not drawn) the binding response (% of control) was inactive: 103%.
In the case of `Cc1cc(C)nc(/N=C(\N)N(Cc2ccccc2)Cc2ccccc2)n1`, the binding response (% of control) is reported as inconclusive: 91.7%.
For `CCN(CC)S(=O)(=O)c1ccc(NC2CCCc3ccccc32)nc1` (stereo not drawn), the binding response (% of control) was inactive: 99.7%.
For `COc1ccccc1NC(=O)Nc1ccccc1C(=O)NCCCN1CCOCC1`, the binding response (% of control) was inconclusive: 97.3%.
With `CSCCC(N=C(NS(=O)(=O)c1ccc(Br)cc1)c1ccccc1)C(=O)O` (stereo not drawn) the binding response (% of control) was inconclusive: 75.2%.
In the case of `Nc1nn2c(-c3ccccc3)cc(=O)[nH]c2c1N=Nc1ccc(Br)cc1`, the binding response (% of control) is reported as inconclusive: 108%.
`O=C1C=C(Nc2ccc(O)cc2)C(=O)c2ccccc21` was tested, and the binding response (% of control) was inconclusive: 33.4%.
`CC(=O)c1nnn(-c2c(F)cccc2F)c1C` was tested, and the binding response (% of control) was inconclusive: 69.6%.
In the case of `COc1ccc(/C=C(/NC(=O)c2ccco2)C(=O)N2CCc3ccccc32)cc1OC`, the binding response (% of control) is reported as inconclusive: 73.7%.
With `CCCCn1cnc2c(=S)nc(N)[nH]c21` the binding response (% of control) was inconclusive: 110%.
`COC(=O)c1cccc(NC(=O)NC(=O)c2ccc(Cl)cc2)c1` was tested, and the binding response (% of control) was inconclusive: 130%.
In the case of `CCc1n[n+](CC(=O)c2ccccc2)c(N)s1`, the binding response (% of control) is reported as inconclusive: 89.3%.
For `O=C(NC1CC1)C1=C[C@@H](c2ccc3c(c2)OCO3)C[C@@H](OCCCCO)O1`, the binding response (% of control) was inconclusive: 94.2%.
With `COc1ccc(C(CC(=O)N2CCN(c3ccccc3)CC2)c2c(OC)cc(OC)c3ccc(=O)oc23)cc1` (stereo not drawn) the binding response (% of control) was inconclusive: 99.5%.
For `CC(=O)Nc1ccc(C(=O)N(C)c2ccccc2)cc1`, the binding response (% of control) was inactive: 97.1%.
For `COc1ccc(C(=O)Nn2c(SCc3ccc([N+](=O)[O-])cc3)nc3ccccc3c2=O)cc1`, the binding response (% of control) was inactive: 109%.
`NC(=O)c1cccnc1OCC(F)(F)F` was tested, and the binding response (% of control) was inconclusive: 159%.
With `COc1cc(C2=NOC(C(=O)Nc3c(C)n(C)n(-c4ccccc4)c3=O)C2)cc(OC)c1OC` (stereo not drawn) the binding response (% of control) was inconclusive: 117%.
In the case of `O=S(=O)(Nc1nc(-c2sccc2Cl)cs1)c1cc(Cl)ccc1Cl`, the binding response (% of control) is reported as inactive: 99.5%.
For `Cc1nc2ccc(C(=O)O)cc2c2c1CC(C)S2` (stereo not drawn), the binding response (% of control) was inactive: 98%.
With `CCNS(=O)(=O)c1ccc2nc(NC(=O)/C=C/c3cc(OC)c(OC)c(OC)c3)sc2c1` the binding response (% of control) was inactive: 99.6%.
In the case of `COc1cccc(-c2cc(C(=O)NCc3cccs3)no2)c1`, the binding response (% of control) is reported as inconclusive: 93.4%.
In the case of `Cc1ccc(OCC(=O)NNC(=O)C2CCCO2)c(C)c1` (stereo not drawn), the binding response (% of control) is reported as inactive: 109%.
With `CN(C)Cc1nnnn1-c1ccccc1` the binding response (% of control) was inconclusive: 140%.
In the case of `O=[n+]1cc(-c2ccc(Cl)cc2)n([O-])c2c1CCC2`, the binding response (% of control) is reported as inconclusive: -569%.
`CCOc1ccc2[nH]c3c(N4CCc5ccccc5C4)ncnc3c2c1` was tested, and the binding response (% of control) was inconclusive: 108%.
With `CC1(C)C2CCC1(C)C(OCCNCCOC(=O)Nc1ccccc1)C2` (stereo not drawn) the binding response (% of control) was inconclusive: 85.7%.
For `COc1ccc(NC(=O)COc2ccc(C(=O)OCC(=O)N(C)C3CCS(=O)(=O)C3)cc2OC)cc1` (stereo not drawn), the binding response (% of control) was inconclusive: 109%.
`CCCCCC(=O)Nc1cccc(C2=NOC3(C2)C[C@@H](C(N)=O)N(C(=O)c2ccc(OC)cc2)C3)c1` (stereo partly drawn) was tested, and the binding response (% of control) was inconclusive: 97.8%.
In the case of `Cc1nc2ccccn2c1-c1ccnc(=S)[nH]1`, the binding response (% of control) is reported as inconclusive: 77.7%.
For `Cc1nc(-c2ccccc2)[nH]c(=O)c1Oc1ccc(Cl)cc1Cl`, the binding response (% of control) was inconclusive: 133%.
With `CCn1c(NC(=O)C(C)C)c(-c2ccccc2)c(=O)c2ccccc21` the binding response (% of control) was inconclusive: 237%.
In the case of `CN1CCN(/N=C/c2ccc(Br)cc2)CC1`, the binding response (% of control) is reported as inconclusive: 105%.
For `Cc1cc(C(=O)NCc2ccc(Cl)cc2)n(-c2ccccc2)n1`, the binding response (% of control) was inconclusive: 84.5%.
In the case of `Cn1cc(Br)c(C(=O)Nc2sc3c(c2C#N)CCC3)n1`, the binding response (% of control) is reported as inconclusive: 18.1%.
In the case of `COc1ccc(C(=O)C2CCCN(C(=O)c3ccoc3C)C2)cc1F` (stereo not drawn), the binding response (% of control) is reported as inconclusive: 98.9%.
In the case of `O=C(/C=C/c1cn(CC(O)CN2CCCCC2)c2ccccc12)c1ccccc1` (stereo not drawn), the binding response (% of control) is reported as inconclusive: 116%.
With `CCN(Cc1ccccc1)C(=O)COC(=O)c1cc(Cl)nc(Cl)c1` the binding response (% of control) was inconclusive: 96.8%.
With `O=C(c1ccccc1F)N1CCCC(C(=O)N2CCN(c3ccccc3)CC2)C1` (stereo not drawn) the binding response (% of control) was inconclusive: 322%.
In the case of `CCN(CC)c1ccc(/C=N\NC(=O)c2cccc3cc[nH]c23)cc1`, the binding response (% of control) is reported as inconclusive: 101%.
In the case of `COC(=O)c1cccc(NC(=O)c2nn(C(C)C)c(=O)c3ccccc23)c1`, the binding response (% of control) is reported as inactive: 98.7%.
`Cc1nc(-c2ccccc2)sc1-c1ccn[nH]1` was tested, and the binding response (% of control) was inconclusive: 88.6%.
In the case of `Cc1cc(C(=O)CSc2nc3ccccc3c(=O)[nH]2)c(C)n1C`, the binding response (% of control) is reported as active: 7.95%.
